Measured values published in the supplement of paper PMC6411743.
± gives the standard deviation of the averaged measurements. This is a selection; strong and weak results do not stand in their true shares.

Chains of the proteins cited; added tags and fusions are not shown. Lines headed by an entry give the natural chain unless they say otherwise; changes in a name come on top.
UniProt Q7Z4Q2: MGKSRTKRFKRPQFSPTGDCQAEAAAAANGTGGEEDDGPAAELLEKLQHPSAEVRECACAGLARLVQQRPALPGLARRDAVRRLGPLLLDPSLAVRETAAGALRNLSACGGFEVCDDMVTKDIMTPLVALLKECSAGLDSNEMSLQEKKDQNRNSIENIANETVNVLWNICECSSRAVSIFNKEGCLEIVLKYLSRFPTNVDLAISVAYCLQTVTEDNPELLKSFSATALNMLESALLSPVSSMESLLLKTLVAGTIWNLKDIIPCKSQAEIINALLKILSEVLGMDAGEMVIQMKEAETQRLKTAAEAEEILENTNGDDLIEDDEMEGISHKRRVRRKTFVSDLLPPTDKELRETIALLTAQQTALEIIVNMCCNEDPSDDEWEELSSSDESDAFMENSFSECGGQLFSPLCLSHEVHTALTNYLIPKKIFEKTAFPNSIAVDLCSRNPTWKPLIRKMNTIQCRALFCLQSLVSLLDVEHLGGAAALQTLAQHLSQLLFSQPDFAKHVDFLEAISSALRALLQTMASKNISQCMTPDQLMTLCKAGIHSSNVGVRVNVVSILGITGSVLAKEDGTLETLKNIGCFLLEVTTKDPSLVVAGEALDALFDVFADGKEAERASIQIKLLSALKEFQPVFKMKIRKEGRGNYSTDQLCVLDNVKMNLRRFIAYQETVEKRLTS
UniProt Q8IVB4: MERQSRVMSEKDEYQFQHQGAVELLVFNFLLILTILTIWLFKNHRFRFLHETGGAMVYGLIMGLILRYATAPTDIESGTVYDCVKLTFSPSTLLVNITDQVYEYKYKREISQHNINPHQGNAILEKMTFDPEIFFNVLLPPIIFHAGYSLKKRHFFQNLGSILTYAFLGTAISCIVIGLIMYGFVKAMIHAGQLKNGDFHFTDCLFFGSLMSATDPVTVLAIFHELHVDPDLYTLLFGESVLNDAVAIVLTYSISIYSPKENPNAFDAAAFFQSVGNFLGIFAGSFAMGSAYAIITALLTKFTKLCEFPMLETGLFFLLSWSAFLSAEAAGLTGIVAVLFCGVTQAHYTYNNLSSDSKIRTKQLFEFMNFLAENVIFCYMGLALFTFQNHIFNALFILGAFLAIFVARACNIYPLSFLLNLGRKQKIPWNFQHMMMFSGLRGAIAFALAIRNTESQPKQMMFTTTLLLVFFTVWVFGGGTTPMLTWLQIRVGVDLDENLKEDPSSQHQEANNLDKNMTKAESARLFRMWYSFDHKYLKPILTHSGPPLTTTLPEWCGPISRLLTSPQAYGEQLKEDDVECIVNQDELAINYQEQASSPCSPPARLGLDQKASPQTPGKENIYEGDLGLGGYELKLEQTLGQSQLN
UniProt Q709C8: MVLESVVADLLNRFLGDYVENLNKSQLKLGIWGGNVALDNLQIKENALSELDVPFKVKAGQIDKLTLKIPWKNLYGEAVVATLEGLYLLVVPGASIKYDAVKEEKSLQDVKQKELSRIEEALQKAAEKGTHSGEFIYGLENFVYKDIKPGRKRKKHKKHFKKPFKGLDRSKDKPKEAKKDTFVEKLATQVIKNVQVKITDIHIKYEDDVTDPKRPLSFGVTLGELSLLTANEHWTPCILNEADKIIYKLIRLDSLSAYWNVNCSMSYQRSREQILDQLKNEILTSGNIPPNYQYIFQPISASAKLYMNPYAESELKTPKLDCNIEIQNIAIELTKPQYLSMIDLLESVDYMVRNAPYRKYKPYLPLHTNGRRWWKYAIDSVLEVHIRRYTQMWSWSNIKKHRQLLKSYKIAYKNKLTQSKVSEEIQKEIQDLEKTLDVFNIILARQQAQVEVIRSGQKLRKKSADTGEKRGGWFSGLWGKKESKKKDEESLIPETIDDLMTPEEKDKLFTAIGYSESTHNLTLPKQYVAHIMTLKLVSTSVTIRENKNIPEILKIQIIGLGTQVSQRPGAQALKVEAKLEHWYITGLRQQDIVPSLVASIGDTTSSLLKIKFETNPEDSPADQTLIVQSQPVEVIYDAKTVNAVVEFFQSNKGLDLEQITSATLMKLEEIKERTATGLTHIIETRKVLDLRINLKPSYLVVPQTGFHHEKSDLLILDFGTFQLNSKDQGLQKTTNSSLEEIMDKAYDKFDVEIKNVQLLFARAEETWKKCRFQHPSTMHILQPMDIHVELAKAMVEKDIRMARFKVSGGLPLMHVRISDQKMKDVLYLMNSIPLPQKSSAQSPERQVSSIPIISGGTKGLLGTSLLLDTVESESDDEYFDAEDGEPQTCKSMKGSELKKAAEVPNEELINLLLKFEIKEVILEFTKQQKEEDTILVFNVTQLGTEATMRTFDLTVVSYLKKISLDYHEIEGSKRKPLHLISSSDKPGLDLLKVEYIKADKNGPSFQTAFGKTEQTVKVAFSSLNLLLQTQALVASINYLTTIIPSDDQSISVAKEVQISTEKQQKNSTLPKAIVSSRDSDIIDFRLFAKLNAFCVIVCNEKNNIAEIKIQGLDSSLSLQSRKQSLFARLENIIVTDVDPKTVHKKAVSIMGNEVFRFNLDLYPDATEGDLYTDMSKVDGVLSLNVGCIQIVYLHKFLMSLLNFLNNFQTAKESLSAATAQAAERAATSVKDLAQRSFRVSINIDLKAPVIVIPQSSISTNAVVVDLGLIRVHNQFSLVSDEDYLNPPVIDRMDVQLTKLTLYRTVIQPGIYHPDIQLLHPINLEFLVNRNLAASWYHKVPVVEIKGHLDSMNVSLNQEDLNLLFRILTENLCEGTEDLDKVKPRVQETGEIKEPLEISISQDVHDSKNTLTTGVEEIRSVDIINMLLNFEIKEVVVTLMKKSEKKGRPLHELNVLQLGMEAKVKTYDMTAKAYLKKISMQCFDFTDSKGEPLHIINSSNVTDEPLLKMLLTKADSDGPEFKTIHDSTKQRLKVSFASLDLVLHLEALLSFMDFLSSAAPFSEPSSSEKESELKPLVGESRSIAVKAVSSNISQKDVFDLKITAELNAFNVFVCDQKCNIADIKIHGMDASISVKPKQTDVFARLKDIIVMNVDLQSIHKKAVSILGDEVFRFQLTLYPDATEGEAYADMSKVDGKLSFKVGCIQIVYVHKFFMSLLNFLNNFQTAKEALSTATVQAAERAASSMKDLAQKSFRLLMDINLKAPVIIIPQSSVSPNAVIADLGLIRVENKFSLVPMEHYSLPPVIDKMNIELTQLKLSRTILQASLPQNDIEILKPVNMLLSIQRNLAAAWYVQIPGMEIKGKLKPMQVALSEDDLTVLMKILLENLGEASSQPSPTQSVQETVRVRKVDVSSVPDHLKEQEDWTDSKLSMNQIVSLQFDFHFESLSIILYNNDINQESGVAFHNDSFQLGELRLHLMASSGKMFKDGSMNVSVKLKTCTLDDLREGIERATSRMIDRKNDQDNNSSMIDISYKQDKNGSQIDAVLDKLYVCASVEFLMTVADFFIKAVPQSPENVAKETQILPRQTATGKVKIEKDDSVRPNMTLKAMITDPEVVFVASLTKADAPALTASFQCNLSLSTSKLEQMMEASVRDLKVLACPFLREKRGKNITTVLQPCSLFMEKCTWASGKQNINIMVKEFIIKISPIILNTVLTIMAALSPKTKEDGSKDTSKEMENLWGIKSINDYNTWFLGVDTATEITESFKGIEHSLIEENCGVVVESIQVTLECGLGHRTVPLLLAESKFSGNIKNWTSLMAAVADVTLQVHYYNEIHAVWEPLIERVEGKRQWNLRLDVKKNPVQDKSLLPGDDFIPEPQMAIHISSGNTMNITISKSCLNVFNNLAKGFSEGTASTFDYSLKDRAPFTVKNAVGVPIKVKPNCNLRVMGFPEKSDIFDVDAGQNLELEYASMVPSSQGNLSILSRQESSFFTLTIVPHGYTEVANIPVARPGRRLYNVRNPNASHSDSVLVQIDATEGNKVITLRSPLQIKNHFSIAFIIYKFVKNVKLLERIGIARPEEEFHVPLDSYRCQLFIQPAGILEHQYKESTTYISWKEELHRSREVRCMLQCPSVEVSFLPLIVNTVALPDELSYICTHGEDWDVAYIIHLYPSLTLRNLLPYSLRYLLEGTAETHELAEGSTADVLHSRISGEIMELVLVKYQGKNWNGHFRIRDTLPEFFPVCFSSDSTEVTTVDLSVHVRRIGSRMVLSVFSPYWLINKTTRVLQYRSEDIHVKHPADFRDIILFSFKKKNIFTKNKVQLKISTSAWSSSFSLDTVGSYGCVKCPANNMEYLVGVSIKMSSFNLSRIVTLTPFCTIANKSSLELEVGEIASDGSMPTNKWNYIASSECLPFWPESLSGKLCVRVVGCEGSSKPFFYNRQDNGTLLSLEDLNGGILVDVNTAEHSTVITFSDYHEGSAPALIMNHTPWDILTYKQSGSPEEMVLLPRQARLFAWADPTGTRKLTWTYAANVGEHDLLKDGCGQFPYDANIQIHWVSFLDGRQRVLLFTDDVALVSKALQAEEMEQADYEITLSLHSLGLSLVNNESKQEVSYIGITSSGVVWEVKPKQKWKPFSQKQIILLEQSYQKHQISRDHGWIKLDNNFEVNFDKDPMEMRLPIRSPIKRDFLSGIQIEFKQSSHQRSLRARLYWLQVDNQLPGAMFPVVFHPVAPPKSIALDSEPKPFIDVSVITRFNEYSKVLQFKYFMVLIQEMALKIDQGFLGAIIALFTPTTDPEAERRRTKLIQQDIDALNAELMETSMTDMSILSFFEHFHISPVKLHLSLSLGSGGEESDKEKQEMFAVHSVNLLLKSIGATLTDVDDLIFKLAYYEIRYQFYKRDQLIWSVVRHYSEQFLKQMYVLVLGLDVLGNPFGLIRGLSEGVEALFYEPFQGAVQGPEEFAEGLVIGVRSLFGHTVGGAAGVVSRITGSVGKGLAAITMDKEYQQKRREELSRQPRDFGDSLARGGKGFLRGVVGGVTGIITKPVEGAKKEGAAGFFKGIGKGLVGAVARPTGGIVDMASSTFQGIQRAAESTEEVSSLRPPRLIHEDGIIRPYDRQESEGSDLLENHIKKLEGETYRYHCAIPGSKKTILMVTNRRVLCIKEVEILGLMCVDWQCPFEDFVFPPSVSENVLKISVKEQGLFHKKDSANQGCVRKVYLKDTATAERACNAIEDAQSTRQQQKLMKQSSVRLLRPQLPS
UniProt Q6ZUT1: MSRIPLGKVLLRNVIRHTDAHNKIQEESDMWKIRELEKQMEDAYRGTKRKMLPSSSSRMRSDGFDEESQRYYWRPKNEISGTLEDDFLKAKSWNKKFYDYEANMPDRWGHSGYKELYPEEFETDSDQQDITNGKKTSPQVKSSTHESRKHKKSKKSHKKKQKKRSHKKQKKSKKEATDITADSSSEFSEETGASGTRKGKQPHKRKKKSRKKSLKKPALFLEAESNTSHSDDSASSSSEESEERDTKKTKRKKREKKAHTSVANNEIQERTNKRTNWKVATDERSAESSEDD
UniProt Q6PI47: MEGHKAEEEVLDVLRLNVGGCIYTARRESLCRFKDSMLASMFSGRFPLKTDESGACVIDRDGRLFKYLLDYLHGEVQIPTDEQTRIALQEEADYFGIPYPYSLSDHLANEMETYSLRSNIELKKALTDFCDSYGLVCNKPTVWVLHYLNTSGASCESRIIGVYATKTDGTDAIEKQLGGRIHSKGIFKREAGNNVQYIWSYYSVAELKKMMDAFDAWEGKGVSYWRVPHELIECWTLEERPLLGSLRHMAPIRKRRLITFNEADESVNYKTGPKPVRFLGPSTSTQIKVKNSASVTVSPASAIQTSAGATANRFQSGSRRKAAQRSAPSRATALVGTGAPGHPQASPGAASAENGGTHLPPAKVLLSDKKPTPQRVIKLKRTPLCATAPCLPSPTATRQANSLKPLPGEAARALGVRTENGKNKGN
UniProt Q86VQ1: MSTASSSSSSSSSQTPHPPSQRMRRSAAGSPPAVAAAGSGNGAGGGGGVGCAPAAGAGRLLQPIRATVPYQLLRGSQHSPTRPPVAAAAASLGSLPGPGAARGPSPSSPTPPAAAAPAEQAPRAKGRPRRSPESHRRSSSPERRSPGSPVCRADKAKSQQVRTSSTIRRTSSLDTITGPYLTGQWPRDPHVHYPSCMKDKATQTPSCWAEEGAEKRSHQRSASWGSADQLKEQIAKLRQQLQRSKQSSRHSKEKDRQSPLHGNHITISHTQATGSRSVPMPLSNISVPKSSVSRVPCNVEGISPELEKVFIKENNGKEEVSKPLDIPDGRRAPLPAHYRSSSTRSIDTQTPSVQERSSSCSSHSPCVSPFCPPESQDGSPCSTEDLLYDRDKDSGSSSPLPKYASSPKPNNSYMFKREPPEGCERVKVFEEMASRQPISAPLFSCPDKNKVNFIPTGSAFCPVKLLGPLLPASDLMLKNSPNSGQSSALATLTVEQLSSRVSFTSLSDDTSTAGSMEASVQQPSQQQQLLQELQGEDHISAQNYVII
UniProt Q6PI78: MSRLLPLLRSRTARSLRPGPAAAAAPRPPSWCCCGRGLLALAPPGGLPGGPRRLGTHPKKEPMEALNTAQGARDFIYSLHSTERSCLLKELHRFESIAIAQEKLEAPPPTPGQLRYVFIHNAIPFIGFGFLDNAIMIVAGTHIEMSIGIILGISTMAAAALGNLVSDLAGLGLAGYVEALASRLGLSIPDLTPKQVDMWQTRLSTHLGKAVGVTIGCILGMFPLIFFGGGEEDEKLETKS

Compound: Nc1ncnc2c1ncn2[C@@H]1O[C@H](COP(=O)(O)OP(=O)(O)OP(=O)(O)O)[C@@H](O)[C@H]1O [adenosine triphosphate]
Assay: NP40-soluble protein abundance relative to vehicle (solubility fold change) (ratio); higher = more soluble protein in presence of ATP
Procedure, shortened: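 Data come from three independent experiments in which Dounce-homogenised Jurkat crude lysate was treated at eight concentrations from 0.1 to 10 mM. Treatment ran 10 min at room temperature and then 3 min at 37 °C, after which 0.8% NP40 and benzonase were added for 60 min at 4 °C before ultracentrifugation. The supernatant underwent TMT labelling and LC-MS/MS, and vsn-normalised intensities were expressed as fold change against the detergent-processed vehicle in each replicate.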

Row | Target | NP40-soluble protein abundance (concentration: 1mM) | NP40-soluble protein abundance (concentration: 2mM) | NP40-soluble protein abundance (concentration: 4mM) | NP40-soluble protein abundance (concentration: 6mM) | NP40-soluble protein abundance (concentration: 8mM) | NP40-soluble protein abundance (concentration: 10mM)
1 | UniProt Q7Z5L9 and related entries | 0.949 ± 0.047 | 0.9441 ± 0.005 | 0.9395 ± 0.008 | 0.9354 ± 0.008 | 0.918 ± 0.019 | 0.912 ± 0.028
2 | HEATR3 (UniProt Q7Z4Q2) | 1.03 ± 0.043 | 1.02 ± 0.031 | 1.04 ± 0.043 | 1.03 ± 0.036 | 1.04 ± 0.045 | 1.07 ± 0.021
3 | UniProt Q7Z333 and related entries | 1.14 ± 0.11 | 1.1 ± 0.099 | 1.09 ± 0.047 | 1.08 ± 0.16 | 1.032 ± 0.0057 | 1.09 ± 0.074
4 | UniProt Q70UQ0 and related entries | 0.972 ± 0.074 | 1 ± 0.053 | 0.963 ± 0.026 | 0.983 ± 0.072 | 0.985 ± 0.043 | 0.926 ± 0.091
5 | IRF2BP1 (UniProt Q8IU81) | 0.9545 ± 0.0067 | 0.971 ± 0.025 | 0.967 ± 0.027 | 0.969 ± 0.02 | 0.949 ± 0.033 | 0.978 ± 0.029
6 | RSRC2 (UniProt Q7L4I2) | 1.19 ± 0.051 | 1.19 ± 0.07 | 1.22 ± 0.078 | 1.29 ± 0.074 | 1.21 ± 0.1 | 1.23 ± 0.094
7 | RINL (UniProt Q6ZS11) | 1.02 ± 0.029 | 0.987 ± 0.032 | 0.96737 ± 0.00041 | 1.02 ± 0.013 | 0.986 ± 0.035 | 1.02 ± 0.015
8 | UniProt Q8IVB4 | 0.843 ± 0.063 | 0.799 ± 0.1 | 0.859 ± 0.1 | 0.913 ± 0.14 | 0.806 ± 0.18 | 0.899 ± 0.24
9 | UniProt Q6RFH5 and related entries | 1.03 ± 0.047 | 1.03 ± 0.05 | 1.12 ± 0.083 | 1.16 ± 0.038 | 1.1 ± 0.12 | 1.13 ± 0.092
10 | AACS (UniProt Q86V21) | 1.01 ± 0.055 | 1 ± 0.048 | 0.968 ± 0.067 | 0.995 ± 0.096 | 1.01 ± 0.057 | 0.951 ± 0.054
11 | UniProt Q7L0J3 and related entries | 0.995 ± 0.046 | 0.981 ± 0.012 | 0.982 ± 0.017 | 1.01 ± 0.07 | 0.968 ± 0.076 | 0.962 ± 0.037
12 | SASS6 (UniProt Q6UVJ0) | 1.03 ± 0.039 | 0.987 ± 0.031 | 1.02 ± 0.038 | 0.978 ± 0.061 | 0.932 ± 0.067 | 0.963 ± 0.062
13 | UniProt Q6ZSZ5 | 1.06 ± 0.08 | 1.03 ± 0.044 | 1.08 ± 0.073 | 1.12 ± 0.092 | 1.04 ± 0.023 | 1.11 ± 0.065
14 | UniProt Q6VMQ6 and related entries | 0.944 ± 0.068 | 0.946 ± 0.029 | 0.932 ± 0.031 | 0.985 ± 0.053 | 0.925 ± 0.02 | 0.95 ± 0.021
15 | UniProt Q7Z7A4 and related entries | 0.992 ± 0.11 | 0.995 ± 0.089 | 0.982 ± 0.029 | 0.872 ± 0.13 | 0.954 ± 0.032 | 1 ± 0.058
16 | UniProt Q6ZXV5 and related entries | 0.951 ± 0.098 | 0.914 ± 0.05 | 0.888 ± 0.1 | 0.927 ± 0.092 | 0.91 ± 0.063 | 0.894 ± 0.092
17 | UniProt Q709C8 and related entries | 1.03 ± 0.079 | 1.03 ± 0.061 | 1.01 ± 0.054 | 0.958 ± 0.047 | 1.01 ± 0.027 | 0.993 ± 0.031
18 | UniProt Q8IUZ5 and related entries | 1 ± 0.18 | 0.967 ± 0.088 | 1.1 ± 0.086 | 1.04 ± 0.037 | 1.02 ± 0.064 | 0.992 ± 0.031
19 | UniProt Q6Y288 | 1 ± 0.086 | 0.987 ± 0.033 | 0.913 ± 0.013 | 0.907 ± 0.068 | 0.954 ± 0.014 | 0.96 ± 0.046
20 | UniProt Q7Z4H7 and related entries | 0.993 ± 0.042 | 1 ± 0.011 | 1.01 ± 0.023 | 1.02 ± 0.015 | 0.986 ± 0.019 | 1 ± 0.013
21 | GLRX5 (UniProt Q86SX6) | 0.874 ± 0.11 | 0.874 ± 0.1 | 0.852 ± 0.088 | 0.93 ± 0.083 | 0.855 ± 0.045 | 0.799 ± 0.12
22 | UniProt Q6ZNJ1 and related entries | 1.03 ± 0.069 | 1.01 ± 0.06 | 1.03 ± 0.04 | 0.956 ± 0.065 | 1.01 ± 0.027 | 1.01 ± 0.054
23 | UniProt Q6ZN18 and related entries | 1.05 ± 0.1 | 1.09 ± 0.14 | 1.1 ± 0.062 | 1.12 ± 0.033 | 0.99 ± 0.15 | 1 ± 0.016
24 | EPM2AIP1 (UniProt Q7L775) | 0.97 ± 0.091 | 0.979 ± 0.11 | 1.01 ± 0.096 | 0.941 ± 0.13 | 1.03 ± 0.12 | 1.06 ± 0.082
25 | SDCCAG8 (UniProt Q86SQ7) | 0.999 ± 0.011 | 0.99 ± 0.041 | 1.02 ± 0.06 | 1.03 ± 0.063 | 0.944 ± 0.042 | 0.945 ± 0.043
26 | METTL3 (UniProt Q86U44) | 1.04 ± 0.03 | 1.02 ± 0.028 | 1.01 ± 0.037 | 1.02 ± 0.058 | 1 ± 0.067 | 1 ± 0.031
27 | UniProt Q86XP3 and related entries | 1.07 ± 0.019 | 1.06 ± 0.019 | 1.1 ± 0.013 | 1.1 ± 0.028 | 1.14 ± 0.021 | 1.14 ± 0.033

From entry 9 up to 10, copied from above:
Row | Target | NP40-soluble protein abundance (concentration: 1mM) | NP40-soluble protein abundance (concentration: 2mM) | NP40-soluble protein abundance (concentration: 4mM) | NP40-soluble protein abundance (concentration: 6mM) | NP40-soluble protein abundance (concentration: 8mM) | NP40-soluble protein abundance (concentration: 10mM)
9 | UniProt Q6RFH5 and related entries | 1.03 ± 0.047 | 1.03 ± 0.05 | 1.12 ± 0.083 | 1.16 ± 0.038 | 1.1 ± 0.12 | 1.13 ± 0.092
10 | AACS (UniProt Q86V21) | 1.01 ± 0.055 | 1 ± 0.048 | 0.968 ± 0.067 | 0.995 ± 0.096 | 1.01 ± 0.057 | 0.951 ± 0.054

Next results.

Row | Target | NP40-soluble protein abundance (concentration: 1mM) | NP40-soluble protein abundance (concentration: 2mM) | NP40-soluble protein abundance (concentration: 4mM) | NP40-soluble protein abundance (concentration: 6mM) | NP40-soluble protein abundance (concentration: 8mM) | NP40-soluble protein abundance (concentration: 10mM)
28 | UniProt Q6W2J9 and related entries | 1.08 ± 0.073 | 1.09 ± 0.15 | 1.11 ± 0.15 | 1.1 ± 0.13 | 1.14 ± 0.051 | 1.13 ± 0.12
29 | TICAM1 (UniProt Q8IUC6) | 0.964 ± 0.2 | 1 ± 0.12 | 0.939 ± 0.059 | 0.921 ± 0.024 | 0.88 ± 0.068 | 0.916 ± 0.089
30 | CDR2L (UniProt Q86X02) | 0.919 ± 0.089 | 0.945 ± 0.017 | 0.968 ± 0.091 | 0.981 ± 0.06 | 0.946 ± 0.096 | 0.985 ± 0.1
31 | CENPQ (UniProt Q7L2Z9) | 1.09 ± 0.14 | 1.128 ± 0.0069 | 1.26 ± 0.17 | 1.31 ± 0.25 | 1.42 ± 0.14 | 1.33 ± 0.089
32 | UniProt Q86WQ0 and related entries | 1.08 ± 0.046 | 1.05 ± 0.082 | 1.04 ± 0.011 | 1.06 ± 0.086 | 1.04 ± 0.073 | 1.01 ± 0.056
33 | UniProt Q6PJG6 | 0.989 ± 0.034 | 0.977 ± 0.066 | 0.967 ± 0.062 | 0.963 ± 0.042 | 0.955 ± 0.049 | 0.947 ± 0.063
34 | UniProt Q6ZUT1 and related entries | 0.986 ± 0.14 | 1.1 ± 0.027 | 1.13 ± 0.043 | 1.11 ± 0.05 | 1.09 ± 0.089 | 1.09 ± 0.11
35 | SND1 (UniProt Q7KZF4) | 1.01 ± 0.05 | 1.03 ± 0.043 | 1.08 ± 0.047 | 1.16 ± 0.085 | 1.23 ± 0.055 | 1.26 ± 0.057
36 | UniProt Q6PI47 | 0.675 ± 0.084 | 0.747 ± 0.065 | 0.885 ± 0.15 | 1.04 ± 0.088 | 1.14 ± 0.17 | 1.32 ± 0.23
37 | UniProt Q7Z5J4 and related entries | 1.12 ± 0.053 | 1.1 ± 0.038 | 1.09 ± 0.013 | 1.18 ± 0.054 | 1.12 ± 0.038 | 1.2 ± 0.056
38 | UniProt Q86VN1 and related entries | 1.01 ± 0.098 | 0.997 ± 0.054 | 0.983 ± 0.047 | 0.951 ± 0.099 | 0.986 ± 0.052 | 0.979 ± 0.013
39 | TSPYL5 (UniProt Q86VY4) | 1 ± 0.042 | 1.051 ± 0.0027 | 1.07 ± 0.024 | 1.1 ± 0.042 | 1.119 ± 0.0042 | 1.11 ± 0.065
40 | LDB1 (UniProt Q86U70) | 0.953 ± 0.011 | 0.957 ± 0.046 | 0.933 ± 0.049 | 0.954 ± 0.029 | 0.945 ± 0.032 | 0.937 ± 0.022
41 | APOOL (UniProt Q6UXV4) | 0.959 ± 0.11 | 0.984 ± 0.063 | 1.01 ± 0.073 | 1.06 ± 0.046 | 1.04 ± 0.091 | 1.05 ± 0.063
42 | GLCCI1 (UniProt Q86VQ1) | 0.995 ± 0.085 | 0.973 ± 0.077 | 1.05 ± 0.087 | 0.997 ± 0.053 | 0.973 ± 0.069 | 0.982 ± 0.096
43 | UniProt Q7Z569 and related entries | 0.98 ± 0.025 | 1.001 ± 0.0095 | 1.01 ± 0.028 | 1.03 ± 0.055 | 0.983 ± 0.033 | 0.984 ± 0.031
44 | UniProt Q7Z6B0 and related entries | 0.954 ± 0.068 | 0.968 ± 0.035 | 0.938 ± 0.032 | 0.996 ± 0.04 | 0.9161 ± 0.0034 | 0.94 ± 0.025
45 | UniProt Q6UUV7 and related entries | 0.988 ± 0.055 | 1.05 ± 0.035 | 0.992 ± 0.013 | 0.92 ± 0.081 | 0.87 ± 0.027 | 0.942 ± 0.026
46 | TMEM65 (UniProt Q6PI78) | 1.01 ± 0.093 | 0.977 ± 0.024 | 0.937 ± 0.075 | 0.93 ± 0.082 | 0.945 ± 0.047 | 0.968 ± 0.034
47 | UniProt Q6ZNW5 | 0.952 ± 0.11 | 1.01 ± 0.033 | 0.984 ± 0.048 | 0.927 ± 0.13 | 0.903 ± 0.061 | 0.973 ± 0.083
48 | UniProt Q7KYR7 and related entries | 1.02 ± 0.051 | 1.1 ± 0.12 | 1.02 ± 0.057 | 1.08 ± 0.097 | 0.991 ± 0.069 | 1.06 ± 0.078
49 | UniProt Q6V1X1 and related entries | 1.06 ± 0.13 | 0.985 ± 0.14 | 1.01 ± 0.12 | 0.96 ± 0.14 | 1.02 ± 0.048 | 0.972 ± 0.079
50 | MEPCE (UniProt Q7L2J0) | 1.1 ± 0.07 | 1.13 ± 0.066 | 1.2 ± 0.078 | 1.32 ± 0.15 | 1.38 ± 0.1 | 1.52 ± 0.1
51 | UniProt Q86U38 | 0.98 ± 0.036 | 0.996 ± 0.075 | 1.07 ± 0.095 | 1.04 ± 0.081 | 1.05 ± 0.082 | 1.13 ± 0.097
52 | UniProt Q7RTV0 | 1.09 ± 0.076 | 1.105 ± 0.0071 | 1.12 ± 0.021 | 1.2 ± 0.047 | 1.181 ± 0.0046 | 1.18 ± 0.023
53 | DHRS11 (UniProt Q6UWP2) | 0.981 ± 0.02 | 1.01 ± 0.037 | 0.976 ± 0.03 | 0.996 ± 0.022 | 0.953 ± 0.025 | 0.963 ± 0.035
